No constants are given. Whether binding was seen depends on the method and setting. Binding seen in cells or lysates may run through a third protein. Some binding calls cover weakened binding; strength is not graded here.
Molecular target: 2HA-PC1-CTT (human polycystin-1 C-terminal tail, aa 4104-4303, N-terminal 2XHA tag) (human) (UniProt P98161)
Assay: co-IP; total kidney lysates of N-Pkd1-KO + CTT, J-Pkd1-KO + CTT and N-Pkd1-KO mice, anti-HA magnetic beads overnight at 4 °C in Tris lysis buffer (50 mM Tris pH 7.4, 100 mM NaCl, 0.5% NP-40, 0.5% Triton X100, 2 mM EDTA), blotted for NNT

Chains of the proteins cited; added tags and fusions are not shown. Residues count along the entry.
UniProt P98161, residues 4104-4303: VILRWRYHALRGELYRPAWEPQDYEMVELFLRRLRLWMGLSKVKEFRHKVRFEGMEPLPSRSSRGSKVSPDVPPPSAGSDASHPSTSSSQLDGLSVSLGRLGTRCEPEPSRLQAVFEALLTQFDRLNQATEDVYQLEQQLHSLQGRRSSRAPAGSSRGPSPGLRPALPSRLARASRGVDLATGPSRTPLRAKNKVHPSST

B1: Nicotinamide Nucleotide Transhydrogenase (NNT) (enzyme, UniProt Q61941 44-1086)
chain: CKSPVKPGIPYKQLTVGVPKEIFQNEKRVALSPAGVQALVKQGFNVVVESGAGEASKFPDDLYRAAGAQIQGMKEVLASDLVVKVRAPMVNPTLGAHEADFLKPSGTLISFIYPAQNPDLLNKLSERKTTVLAMDQVPRVTIAQGYDALSSMANISGYKAVVLAANHFGRFFTGQITAAGKVPPAKILIVGGGVAGLASAGAAKSMGAVVRGFDTRAAALEQFKSLGAEPLEVDLKESGEGQGGYAKEMSKEFIEAEMKLFAQQCKEVDILISTALIPGKKAPVLFSKEMIESMKEGSVVVDLAAEAGGNFETTKPGELYVHKGITHIGYTDLPSRMATQASTLYSNNITKLLKAISPDKDNFHFEVKDDFDFGTMSHVIRGTVVMKDGKVIFPAPTPKNIPEEAPVKPKTVAELEAEKAGTVSMYTKTLTTASVYSAGLTGMLGLGIVAPNVAFSQMVTTFGLAGIIGYHTVWGVTPALHSPLMSVTNAISGLTAVGGLALMGGHFYPSTTSQSLAALATFISSVNIAGGFLVTQRMLDMFKRPTDPPEYNYLYLLPGGTFVGGYLAALYGGYNIEEIMYLGSGLCCVGALGGLSTQGTARLGNALGMIGVAGGLAATLGGLKPDPQLLAQMSGAMAMGGTIGLTIAKRIQISDLPQLVAAFHSLVGLAAVLTCMAEYIVEYPHFAMDATSNFTKIVAYLGTYIGGVTFSGSLVAYGKLQGILKSAPLLLPGRHALNAGLLAASVGGIIPFMADPSFTTGITCLGSVSGLSTLMGVTLTAAIGGADMPVVITVLNSYSGWALCAEGFLLNNNLLTIVGALIGSSGAILSYIMCVAMNRSLANVILGGYGTTSTAGGKPMEISGTHTEINLDNAVEMIREANSIVITPGYGLCAAKAQYPIADLVKMLTEQGKKVRFGIHPVAGRMPGQLNVLLAEAGVPYDIVLEMDEINSDFPDTDLVLVIGANDTVNSAAQEDPNSIIAGMPVLEVWKSKQVIVMKRSLGVGYAAVDNPIFYKPNTAMLLGDAKKTCDALQAKVRESYQK
  binding: binds
